Reference: paper PMC12663271
Results are given in words; binding and its absence hold for the method and conditions named. Binding seen in cells or lysates may run through a third protein. Some binding calls cover weakened binding; strength is not graded here. Sequences can lack the tags named with a protein.

By UniProt entry, the sequences of proteins in these tests, tags left out.
UniProt Q13131: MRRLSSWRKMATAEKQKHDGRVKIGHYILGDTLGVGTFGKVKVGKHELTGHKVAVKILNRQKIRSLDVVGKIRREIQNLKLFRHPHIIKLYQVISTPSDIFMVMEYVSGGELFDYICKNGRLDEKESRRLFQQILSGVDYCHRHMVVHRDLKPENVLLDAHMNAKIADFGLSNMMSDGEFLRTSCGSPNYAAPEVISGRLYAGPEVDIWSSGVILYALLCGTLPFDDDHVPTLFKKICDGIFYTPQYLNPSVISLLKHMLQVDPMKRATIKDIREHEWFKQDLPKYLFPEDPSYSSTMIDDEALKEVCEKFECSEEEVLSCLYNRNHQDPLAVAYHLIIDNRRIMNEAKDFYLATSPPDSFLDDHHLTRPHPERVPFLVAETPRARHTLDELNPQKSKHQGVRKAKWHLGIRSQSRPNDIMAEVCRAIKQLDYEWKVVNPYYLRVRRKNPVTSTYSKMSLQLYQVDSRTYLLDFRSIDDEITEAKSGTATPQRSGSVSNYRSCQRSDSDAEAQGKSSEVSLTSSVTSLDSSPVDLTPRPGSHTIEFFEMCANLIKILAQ

Biological target: Flag-tagged AMPKα1 (UniProt Q13131)
Test: co-IP; 293T cells co-transfected with Flag- and HA-tagged constructs; lysis in BC300 (300 mM KCl, 0.1% NP40), diluted with an equal volume of BC0; anti-Flag M2 magnetic beads; washes with BC150; western blot; glucose said to have a limited effect on the interaction (Fig. S3A)

binding: binds
B1: HA-tagged WIP1 (enzyme, UniProt O15297 1-605)
chain: MAGLYSLGVSVFSDQGGRKYMEDVTQIVVEPEPTAEEKPSPRRSLSQPLPPRPSPAALPGGEVSGKGPAVAAREARDPLPDAGASPAPSRCCRRRSSVAFFAVCDGHGGREAAQFAREHLWGFIKKQKGFTSSEPAKVCAAIRKGFLACHLAMWKKLAEWPKTMTGLPSTSGTTASVVIIRGMKMYVAHVGDSGVVLGIQDDPKDDFVRAVEVTQDHKPELPKERERIEGLGGSVMNKSGVNRVVWKRPRLTHNGPVRRSTVIDQIPFLAVARALGDLWSYDFFSGEFVVSPEPDTSVHTLDPQKHKYIILGSDGLWNMIPPQDAISMCQDQEEKKYLMGEHGQSCAKMLVNRALGRWRQRMLRADNTSAIVICISPEVDNQGNFTNEDELYLNLTDSPSYNSQETCVMTPSPCSTPPVKSLEEDPWPRVNSKDHIPALVRSNAFSENFLEVSAEIARENVQGVVIPSKDPEPLEENCAKALTLRIHDSLNNSLPIGLVPTNSTNTVMDQKNLKMSTPGQMKAQEIERTPPTNFKRTLEESNSGPLMKKHRRNGLSRSSGAQPASLPTTSQRKNSVKLTMRRRLRGQKKIGNPLLHQHRKTVCVC
